The chains behind the UniProt entries cited, without tags or fusion partners. Residues count along the entry.
UniProt O43347, 1-200: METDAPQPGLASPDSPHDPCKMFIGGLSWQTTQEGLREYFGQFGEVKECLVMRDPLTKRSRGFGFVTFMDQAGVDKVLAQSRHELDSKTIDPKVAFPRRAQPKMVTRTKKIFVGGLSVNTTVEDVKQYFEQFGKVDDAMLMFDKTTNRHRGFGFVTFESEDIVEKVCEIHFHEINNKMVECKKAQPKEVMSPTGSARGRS
UniProt O43347, 1-200 E180N/K182M: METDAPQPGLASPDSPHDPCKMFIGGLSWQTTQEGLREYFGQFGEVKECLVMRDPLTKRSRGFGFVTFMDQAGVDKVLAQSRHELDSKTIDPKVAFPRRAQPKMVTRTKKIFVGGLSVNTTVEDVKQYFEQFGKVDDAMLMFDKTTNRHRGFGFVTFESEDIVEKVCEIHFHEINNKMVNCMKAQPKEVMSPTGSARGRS
UniProt O43347, 1-200 F96P/R98P/E180N/K182M: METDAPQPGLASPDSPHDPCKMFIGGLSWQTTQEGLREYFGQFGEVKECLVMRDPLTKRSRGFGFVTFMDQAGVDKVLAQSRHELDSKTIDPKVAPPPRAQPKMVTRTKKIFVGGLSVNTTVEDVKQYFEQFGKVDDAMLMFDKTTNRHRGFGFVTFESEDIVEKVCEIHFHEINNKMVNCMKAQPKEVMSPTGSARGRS

In article PMC12342889:

Legend:
[1] = target: MSI-1 RRM1-2 (Homo sapiens) (UniProt O43347); experiment: NMR; settings: NMR: 50 mM Tris-HCl, 140 mM NaCl, 1 mM EDTA, 1 mM protease inhibitors, pH 7.2 (RRM1: pH 7.5), 298 K, recombinant protein, residues 1-200
[2] = target: MSI-1 RRM1-2 DM E180N,K182M (Homo sapiens) (UniProt O43347); experiment: SPR; settings: KD2 bivalent, 1:2 model; SPR: biotinylated RNA immobilised; recombinant protein; residues 1-200; label: biotin for SPR, unlabelled for NMR
[3] = target: MSI-1 RRM1-2 DM E180N,K182M (Homo sapiens) (UniProt O43347); experiment: NMR; settings: second site weakened, heterogeneous; NMR: 50 mM Tris-HCl, 140 mM NaCl, 1 mM EDTA, 1 mM protease inhibitors, pH 7.2 (RRM1: pH 7.5), 298 K; recombinant protein; residues 1-200
[4] = target: MSI-1 RRM1-2 TM F96P,R98P,E180N,K182M (Homo sapiens) (UniProt O43347); experiment: NMR; settings: fast exchange, only RRM2 involved; NMR: 50 mM Tris-HCl, 140 mM NaCl, 1 mM EDTA, 1 mM protease inhibitors, pH 7.2 (RRM1: pH 7.5), 298 K; recombinant protein; residues 1-200; label: biotin for SPR, unlabelled for NMR

UUGAUAGUUAGCAGGU [oligo-L3.2]
binding result ([1]; slow exchange, split signals, text says weaker than L3, label: biotin for SPR, unlabelled for NMR): binds more weakly

UUGUUAGUUACCCCUU [oligo-L2]
Kd [2]: 10.6 µM

AAGCGAUAGUUAUGCAGGCGCUU [oligo-HP4.2]
binding result [3]: binds more weakly
binding result ([1]; second site weakened, heterogeneous): binds more weakly

UUGUUAGUUAUUAGUU [oligo-L3]
binding result [4]: binds more weakly

For some assays here: A weaker result is weaker than the reference pair of the same experiment. For some assays here: The exact form of at least one protein or probe is not confirmed.
